Data: publication PMC4506539, “Crystallographic structure of a small molecule SIRT1 activator-enzyme complex” (Nature Communications, 2015)
These are yes or no findings as the source states them, for the method shown. Some results given as binding are weak or reduced against the parent protein; the word gives no strength.

Molecular target: T1, hSIRT1 catalytic core, residues 229–516 (human, UniProt Q96EB6 229-516)
T1 sequence (looked up): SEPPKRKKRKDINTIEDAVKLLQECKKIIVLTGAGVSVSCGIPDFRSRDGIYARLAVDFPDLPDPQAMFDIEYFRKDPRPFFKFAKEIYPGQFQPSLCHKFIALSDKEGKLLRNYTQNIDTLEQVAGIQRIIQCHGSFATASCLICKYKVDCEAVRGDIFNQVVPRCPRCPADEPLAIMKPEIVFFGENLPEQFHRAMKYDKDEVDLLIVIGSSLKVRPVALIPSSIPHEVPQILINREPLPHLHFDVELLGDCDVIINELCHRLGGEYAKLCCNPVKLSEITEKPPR
Assay: HDX-MS; 1.36 mg/ml SIRT1 (229–516) ± 1.67 mM CTR peptide, 90% D2O, 200 mM phosphate pH read 7.0; 0 °C, 15-5,000 s; both purified

“human C-terminal regulatory segment (CTR) peptide of SIRT1 (from UniProt Q96EB6 641-665)” was tested, and the binding was “binds”.
